From US5998596

Chains of the proteins cited; added tags and fusions are not shown. Residues count along the entry.
UniProt P06239, 2-509: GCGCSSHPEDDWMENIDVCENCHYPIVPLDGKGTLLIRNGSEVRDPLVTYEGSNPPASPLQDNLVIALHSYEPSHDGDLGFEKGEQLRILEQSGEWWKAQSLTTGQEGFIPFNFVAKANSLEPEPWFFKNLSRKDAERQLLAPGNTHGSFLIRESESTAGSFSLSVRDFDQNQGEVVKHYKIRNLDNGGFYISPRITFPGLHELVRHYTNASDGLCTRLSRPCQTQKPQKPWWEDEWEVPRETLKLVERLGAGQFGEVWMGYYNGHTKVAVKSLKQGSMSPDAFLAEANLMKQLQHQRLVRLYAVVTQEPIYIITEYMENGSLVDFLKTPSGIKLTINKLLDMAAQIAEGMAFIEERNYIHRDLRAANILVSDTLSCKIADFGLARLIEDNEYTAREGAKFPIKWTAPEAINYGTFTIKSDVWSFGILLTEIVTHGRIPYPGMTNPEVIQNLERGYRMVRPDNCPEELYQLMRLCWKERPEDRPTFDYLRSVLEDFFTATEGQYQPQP

Columns and labels:
Test in all cases: inhibition of the protein
EGF receptor (EGFR) = EGF receptor (EGFR) (UniProt P00533); details: PS, two linkages at each of 5' and 3' ends, rest phosphodiester; autophosphorylation, 30 C; purified native protein; protein details: immunoprecipitated from A431 cells with clone LA1; single-stranded DNA
[1] = biological target: LCK tyrosine kinase (Homo sapiens) (UniProt P06239); details: PS, two linkages at each of 5' and 3' ends, rest phosphodiester; purified native protein; single-stranded DNA
cdc-2 kinase = cdc-2 kinase (UniProt P06493); details: PS, two linkages at each of 5' and 3' ends, rest phosphodiester; casein substrate; purified native protein; protein details: immunoprecipitated from K562 cells; single-stranded DNA
[2] = biological target: SRC tyrosine kinase (c-Src) (UniProt P12931); details: PS, two linkages at each of 5' and 3' ends, rest phosphodiester; enolase as substrate; purified native protein; protein details: immunoprecipitated from K562 cells; single-stranded DNA

Work on “GTCCACCATGGCGCGGCCGGC [ODN1 (BCR-AS), phosphorothioate capped]” yielded an IC50 (EGF receptor (EGFR)) of over 100 µM, an IC50 [1] of over 50 µM and an IC50 (cdc-2 kinase) of over 50 µM. It also gave an IC50 [2] of over 100 µM.
